Some of these results come from one statement about several compounds together.
Legend:
NSV = format: cell-based, neuroadapted Sindbis virus
WEEV = format: cell-based, Western equine encephalitis virus

| SMILES | increase in cell viability after NSV infection (NSV) | increase in cell viability after WEEV infection (WEEV) |
| --- | --- | --- |
| O=C(NCc1ccccc1)C1CCN(C(=O)c2cc3ccccc3n2Cc2ccc(Cl)cc2)CC1 [CCG 102516, N-benzyl-1-(1-(4-chlorobenzyl)-1H-indole-2-carbonyl)piperidine-4-carboxamide] | 1.5- to 2 fold | 1.5- to 2 fold |
| C[C@@H](NC(=O)C1CCN(C(=O)c2cc3ccccc3n2Cc2ccc(Cl)cc2)CC1)c1ccccc1 [CCG 203926, (R)-1-(1-(4-chlorobenzyl)-1H-indole-2-carbonyl)-N-(1-phenylethyl)piperidine-4-carboxamide] | 1.5- to 2 fold | 1.5- to 2 fold |

— patent US8846684B2 (priority 2011, dated 2014)
